From paper PMC4539610 come the findings set out here.

By UniProt entry, the sequences of proteins in these tests, tags left out. Where a name states a change or a piece, a line headed by the entry shows the natural chain unless it says otherwise.
UniProt P05198: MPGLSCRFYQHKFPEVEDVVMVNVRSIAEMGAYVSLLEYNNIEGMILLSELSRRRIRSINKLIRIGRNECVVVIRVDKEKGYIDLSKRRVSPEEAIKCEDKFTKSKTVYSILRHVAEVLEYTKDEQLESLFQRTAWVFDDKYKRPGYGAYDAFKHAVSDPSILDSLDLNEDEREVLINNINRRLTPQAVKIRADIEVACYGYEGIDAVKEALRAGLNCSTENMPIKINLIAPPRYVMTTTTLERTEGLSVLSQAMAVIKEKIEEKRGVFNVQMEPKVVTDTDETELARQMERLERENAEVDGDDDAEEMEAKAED
UniProt Q9NTK5: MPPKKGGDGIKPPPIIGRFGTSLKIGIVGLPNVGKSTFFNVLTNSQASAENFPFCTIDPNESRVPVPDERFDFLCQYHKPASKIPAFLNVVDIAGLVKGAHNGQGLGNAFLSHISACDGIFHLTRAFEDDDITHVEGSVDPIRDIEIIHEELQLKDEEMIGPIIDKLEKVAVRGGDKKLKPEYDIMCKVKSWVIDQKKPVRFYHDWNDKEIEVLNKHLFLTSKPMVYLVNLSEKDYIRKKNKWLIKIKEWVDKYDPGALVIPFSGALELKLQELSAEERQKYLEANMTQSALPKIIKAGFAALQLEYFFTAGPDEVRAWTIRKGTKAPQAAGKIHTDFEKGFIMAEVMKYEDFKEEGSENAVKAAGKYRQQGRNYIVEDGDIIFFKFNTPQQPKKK
UniProt P20042: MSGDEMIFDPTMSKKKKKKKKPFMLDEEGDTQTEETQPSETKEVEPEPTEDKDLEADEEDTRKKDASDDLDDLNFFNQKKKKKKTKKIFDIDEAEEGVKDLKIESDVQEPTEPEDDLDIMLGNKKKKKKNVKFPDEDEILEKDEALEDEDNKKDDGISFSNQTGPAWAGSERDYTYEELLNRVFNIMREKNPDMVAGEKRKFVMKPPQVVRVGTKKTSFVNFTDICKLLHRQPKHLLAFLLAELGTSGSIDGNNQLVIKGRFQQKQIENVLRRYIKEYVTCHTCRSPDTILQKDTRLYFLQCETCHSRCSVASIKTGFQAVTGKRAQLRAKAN
UniProt P41091: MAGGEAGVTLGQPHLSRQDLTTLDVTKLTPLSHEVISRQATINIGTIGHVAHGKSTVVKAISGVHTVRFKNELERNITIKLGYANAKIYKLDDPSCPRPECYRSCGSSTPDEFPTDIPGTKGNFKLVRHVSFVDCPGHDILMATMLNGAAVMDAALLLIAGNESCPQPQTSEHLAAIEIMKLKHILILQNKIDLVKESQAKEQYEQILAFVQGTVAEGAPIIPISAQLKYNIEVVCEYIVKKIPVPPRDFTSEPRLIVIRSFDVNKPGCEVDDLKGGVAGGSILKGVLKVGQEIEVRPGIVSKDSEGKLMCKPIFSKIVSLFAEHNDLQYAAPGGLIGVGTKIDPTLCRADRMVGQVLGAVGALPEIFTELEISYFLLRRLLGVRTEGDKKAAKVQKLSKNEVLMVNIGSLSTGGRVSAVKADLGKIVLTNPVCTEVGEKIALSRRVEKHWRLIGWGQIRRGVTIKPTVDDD

These are yes or no findings as the source states them, for the method shown. In cells and extracts the contact can be indirect. Some binding calls cover weakened binding; strength is not graded here.

Experiment [1] has as its target HA-tagged eIF2α (wild type), ectopically expressed (UniProt P05198). Briefly: co-IP; HEK293T cells transfected with control vector or HA-eIF2α vectors; lysates immunoprecipitated with anti-HA antibody, immunoblot.
Experiment [2] has as its target eIF2α (α subunit of eukaryotic initiation factor 2), endogenously expressed (human (endogenous in HEK293T)) (UniProt P05198). Briefly: co-IP; HEK293T cell lysate immunoprecipitated with anti-eIF2α or anti-IgG antibody, blotted with anti-OLA1 and anti-eIF2α; both proteins endogenous.
Experiment [3] deals with eIF2α of the in vitro IP assay (UniProt P05198). Description: co-IP; in vitro IP assay (Fig. S2C); details not shown.
The target in experiment [4] is recombinant OLA1 (wild type) (human) (UniProt Q9NTK5). Briefly: pull-down; recombinant OLA1 as bait, the three eIF2 subunits detected (Fig. S2D); details not shown.
Experiment [5] deals with FLAG-tagged OLA1 (wild type), ectopically expressed (human) (UniProt Q9NTK5). Description: co-IP; HEK293T cells transfected with control or FLAG-OLA1 vector for 48 h; lysates immunoprecipitated with anti-FLAG antibody, immunoblot.

For the substance “OLA1 (Obg-like ATPase 1), endogenously expressed (from UniProt Q9NTK5-1 1-396)”, the binding entry in experiment [1] and in experiment [2] was “binds” throughout.

As to “OLA1 of the in vitro IP assay (from UniProt Q9NTK5-1 1-396)”, the binding result in experiment [3] is “binds”.

On to “eIF2 α subunit pulled down by recombinant OLA1 (from UniProt P05198 1-315)”, for which the binding result in experiment [4] was “binds”.

As to “eIF2 β subunit pulled down by recombinant OLA1 (from UniProt P20042 1-333)”, the binding result in experiment [4] is “binds”.

For the substance “eIF2 γ subunit pulled down by recombinant OLA1 (from UniProt P41091 1-472)”, the binding result in experiment [4] was “binds”.

For “eIF2α (α subunit of eukaryotic initiation factor 2), endogenously expressed (from UniProt P05198 1-315)”, the binding entry in experiment [5] is “binds”.
